In US9066905B2, “Synthetic peptides and methods of use for autoimmune disease therapies” (President and Fellows of Harvard College, priority 1998, dated 2015):
Some entries share one result that the patent states for a list of compounds. At least one peptide structure holds a part that was inferred or is arguable (an end, a ring closure or a residue).

System: DR4-restricted CII-specific T cell hybridomas (3838 and D3)
Test: Inhibition of IL-2 production by DR4-restricted CII-specific T cell hybridomas
Assay type: cell-based, mouse
Details: DR4 3838 T cell clone; L fibroblasts transfected with HLA-DR4 as APC; CII 261-273

C[C@H](N)C(=O)N[C@@H](CCC(=O)O)C(=O)N[C@@H](C)C(=O)N[C@@H](Cc1ccc(O)cc1)C(=O)N[C@@H](CCCCN)C(=O)N[C@@H](C)C(=O)N[C@@H](C)C(=O)N[C@@H](C)C(=O)N[C@@H](C)C(=O)N[C@@H](C)C(=O)N[C@@H](C)C(=O)N[C@@H](C)C(=O)N[C@@H](C)C(=O)N[C@@H](C)C(=O)N[C@@H](C)C(=O)O [compound 23]
inhibition of CII-specific T cell response (IL-2 secretion): over 80%
